Data as given in PubChem BioAssay AID504774 (Drosophila RNAi Screening Center, 2011)

Purpose: 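Genes required for cells to withstand methyl methanesulphonate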 (primary screen)
System: Drosophila Kc167 cells
Knock-down reagent: long dsRNA against Drosophila genes, about 0.25 µg dsRNA per well
Duration: about 6 days: 3 days knock-down, then 3 days with or without MMS
Conditions: methyl methanesulphonate 0.004% (w/v) for 3 days after knock-down
Measured: 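Viability in wells given MMS, read as ATP luminescence, normalised by quantiles plate by plate and averaged across replicates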
Direction: mean viability with MMS: higher = more surviving cells after MMS
In all, the deposit lists about 23,000 reagents; this is a random part of those that have a named target and a result. 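Values are quantile-normalised luminescence on an arbitrary scale; higher means more cells surviving MMS.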 The numbers tell different reagents against one gene apart. Names joined by + are all predicted targets of the reagent. Further read-outs or replicates are left out here.

| Gene | dsRNA no. | mean viability with MMS |
| --- | --- | --- |
| wda | 1 | 3.64e6 |
| wda | 2 | 3.46e6 |
| p130CAS | 1 | 3.62e6 |
| p130CAS | 2 | 3.58e6 |
| CG32462 | 1 | 3.59e6 |
| RpS27A | 1 | 3.29e6 |
| Pomp | 1 | 2.59e6 |
| icln | 1 | 3.48e6 |
| CG9641 | 1 | 3.63e6 |
| Galphaf | 1 | 3.67e6 |
| CG1316 | 1 | 4.32e6 |
| CG7639 | 1 | 3.54e6 |
| CG15239 | 1 | 3.58e6 |
| CG12942 | 1 | 3.47e6 |
| Sf3a2 | 1 | 3.10e6 |
| BaraC | 1 | 3.42e6 |
| CG11893 | 1 | 3.62e6 |
| CG5726 | 1 | 3.44e6 |
| Vps13D | 1 | 3.55e6 |
| Vps13D | 2 | 3.76e6 |
| dgt1 | 1 | 3.69e6 |
| CG3163 | 1 | 3.53e6 |
| Tnpo | 1 | 3.31e6 |
| CG42232 | 1 | 3.43e6 |
| CG42232 | 2 | 3.56e6 |
| CG17230 | 1 | 3.60e6 |
| CG9691 | 1 | 3.57e6 |
| CG17032 | 1 | 3.65e6 |
| CG4017 | 1 | 3.52e6 |
| Traf6 | 1 | 3.66e6 |
| Mtr3 | 1 | 3.48e6 |
| SmE | 1 | 3.11e6 |
| lgs | 1 | 3.53e6 |
| CG42613 | 1 | 3.39e6 |
| CG42613 | 2 | 3.54e6 |
| CG42613 | 3 | 3.89e6 |
| Toll-9 | 1 | 3.49e6 |
| CG32219 | 1 | 3.69e6 |
| CG15366 (retired record) | 1 | 3.54e6 |
| CG4074 + CG4186 | 1 | 3.77e6 |
| CG30419 | 1 | 3.52e6 |
| CG30419 | 2 | 3.60e6 |
| CG30419 | 3 | 3.48e6 |
| Alp4 | 1 | 3.55e6 |
| Fum2 | 1 | 3.54e6 |
| AdamTS-A | 1 | 3.25e6 |
| AdamTS-A | 2 | 3.62e6 |
| Slh | 1 | 3.55e6 |
| CG10466 | 1 | 3.50e6 |
| mav | 1 | 3.59e6 |
| Hira | 1 | 3.38e6 |
| Ktl | 1 | 3.62e6 |
| Pdxk | 1 | 3.41e6 |
| CG11141 | 1 | 3.07e6 |
| Spn47C | 1 | 3.57e6 |
| Acn | 1 | 3.38e6 |
| Suv3 | 1 | 3.67e6 |
| orb2 | 1 | 3.58e6 |
| orb2 | 2 | 3.53e6 |
| orb2 | 3 | 3.52e6 |
| CG13060 | 1 | 3.58e6 |
| mxc | 1 | 3.40e6 |
| Rab9D + Rab9Fa + Rab9E | 1 | 3.64e6 |
| COX6B | 1 | 3.65e6 |
| CG13038 | 1 | 3.61e6 |
| CG13955 | 1 | 3.50e6 |
| Diedel | 1 | 3.61e6 |
| CG13907 | 1 | 3.58e6 |

Entries above whose gene name begins with T or t (3):
| Gene | dsRNA no. | mean viability with MMS |
| --- | --- | --- |
| Tnpo | 1 | 3.31e6 |
| Traf6 | 1 | 3.66e6 |
| Toll-9 | 1 | 3.49e6 |
